Where “and” joins values, the source holds several entries; their conditions need not be identical. Equal entries are not always repeated. Out of some 340,000 compounds screened, about 4,500 (1.3%) were called active. Inconclusive results, whose numbers are uncertain, are shown with a selection of clear calls. The call rests on the fitted dose curve; in most records, active means well fitted inhibition curve with a large enough effect; inconclusive means small, poorly fitted or top-dose-only effect, or another doubt; inactive means no such curve, though single readings can be large or run the other way. Potencies beside an inconclusive call are fits to weak or partial responses and may not hold up.
biological target: DNA polymerase beta (Homo sapiens) (UniProt P06746); test: qHTS Assay for Inhibitors of DNA Polymerase Beta; settings: Pol beta primer extension/strand displacement, fluorescence kinetic; activity change, negative = inhibition: at 114 µM (top of the series)
Outline: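 Human Pol beta at 10 nM; strand-displacement substrate 50 nM final. Compound exposure 15 min at room temperature before start, reaction 10 min at room temperature.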
On the % scale 0 is the no-effect control and ±100 the full control effect; potency means the concentration at half of the fitted maximal effect.

Potency, inconclusive:
CC1CN(C(=O)COC(=O)c2nn(-c3ccccc3)c(=O)c3ccccc23)CC(C)O1 (stereo not given) 89.1 µM [inhibitor, single point], COCCN(CCOC)S(=O)(=O)c1ccc(C(=O)Nc2sc3c(c2C(=O)OC)CCN(C)C3)cc1 89.1 µM [inhibitor, single point], O=[N+]([O-])c1cccn2cc(-c3ccc(Br)cc3)nc12 14.1 µM [inhibitor, full curve], O=C(c1cc(=O)[nH]c2ccccc12)N1CCc2ccccc2C1 89.1 µM [inhibitor, partial curve], O=Cc1coc2ccc3ccccc3c2c1=O 89.1 µM [inhibitor, single point], Cc1ccccc1C(=O)N1CCC(C(=O)Oc2ccc(C#N)cc2)CC1 79.4 µM [inhibitor, single point], O=C(NC1CCCc2ccccc21)c1ccc(CNc2c(N3CCOCC3)c(=O)c2=O)cc1 (stereo not given) 5.62 µM [inhibitor, full curve, poor fit], O=[N+]([O-])c1ccc(COc2cccc(CNc3ccc(F)cc3)c2)cc1 79.4 µM [inhibitor, partial curve], COc1cccc(/C=C/C(=O)c2c(O)cc(C)oc2=O)c1O 89.1 µM [inhibitor, single point], CC(=O)c1ccc(N2CCN(S(=O)(=O)c3cc4[nH]c(=O)c(=O)[nH]c4cc3C)CC2)cc1 39.8 µM [inhibitor, partial curve] and 28.2 µM [inhibitor, full curve], Cc1ccc(S(=O)(=O)N2CCCCC2)cc1NC(=O)CSc1ncn[nH]1 89.1 µM [inhibitor, single point], CC(C)(C)NS(=O)(=O)c1ccc(CCC(=O)NCc2ccccn2)cc1 89.1 µM [inhibitor, single point], C[C@H](NC(=O)c1nc[nH]c1C(=O)N[C@@H](Cc1ccccc1)C(=O)OC(C)(C)C)c1ccccc1 39.8 µM [inhibitor, single point], O=C(NC(CSCc1ccccc1)C(=O)N/N=C/c1ccc(O)cc1O)c1ccc([N+](=O)[O-])cc1 (stereo not given) 56.2 µM [inhibitor, partial curve], O=C(/C=C/Nc1cccc(C(F)(F)F)c1)c1ccc(Oc2ncccn2)cc1 22.4 µM [inhibitor, single point], CCCn1c2ccc(F)cc2c2nnc(SCCN3CCCCC3)nc21 89.1 µM [inhibitor, single point], N#C/C(=C\c1ccc(-c2ccccc2[N+](=O)[O-])o1)C(N)=O 39.8 µM [inhibitor, single point], COCc1cc(C)nc(N/N=C/c2ccc(-c3cc(C(=O)O)ccc3Cl)o2)c1C#N 22.4 µM [inhibitor, full curve, poor fit], O=C(Nc1nc(-c2ccccn2)cs1)c1ccco1 28.2 µM [inhibitor, single point], COc1cc2ccccc2cc1C(=O)N/N=C/c1ccc2c(c1)OCO2 50.1 µM [inhibitor, partial curve], CC(C)COc1cccc(C(=O)Nc2ccc(S(=O)(=O)N3CCOCC3)cc2)c1 89.1 µM [inhibitor, single point]

Potency, inactive:
COC(=O)c1c(NC(=O)COC(=O)c2ccc(C)s2)sc2c1CCCCC2, Cc1ccc(S(=O)(=O)N2CCC(N3CCN(Cc4ccccc4)C(=O)C3=O)CC2)cc1C, Cc1ccc2c(c1)N(C(=O)CSc1nncn1C)C(C)(C)c1ssc(=S)c1-2, Cc1nn(Cc2n[nH]c(=S)n2Cc2ccccc2)c(C)c1Cl, COc1ccccc1/C=C/C(=O)c1c2c(c(C)[nH]c1=O)CCCC2, CCOc1ccc2ncc3c(-c4ccc(C)cc4)nn(-c4cccc(F)c4)c3c2c1, O=[N+]([O-])c1ccccc1-c1ccc(C(=S)N2CCCC2)o1, Cc1noc(C)c1COc1ccc(C(=O)OCC(=O)N2CC(=O)Nc3ccccc32)cc1, COc1cccc(NC(=O)c2cccc3c(=O)c4c([nH]c23)CCCC4)c1, CCN1C(=C(C#N)C#N)C=Cc2cc(C)ccc21, COc1ccc(-c2noc(CCC(=O)N(C)c3cc(Cl)ccc3OC)n2)cc1, Cc1cccc(C(=O)Nc2sc(C(=O)N3CCCC3)c(C)c2C#N)c1, CC(C)n1c(-c2ccc(C(C)(C)C)cc2)n[nH]c1=S, COc1ccc(-n2c(C)c([N+](=O)[O-])c3ccc(O)c(CN4CCCCC4)c32)cc1, CCOc1ccc(NCc2cccn2-c2nnc(N3CCC(C(=O)NCc4ccccc4Cl)CC3)s2)cc1

Potency, active:
O=C(N/N=C/c1cccnc1)c1ccc(NC(=O)c2cccc(Cl)c2)cc1 8.91 µM, C=CCN=c1scc(C)n1/N=C/c1ccc(O)c(O)c1 2.51 µM, COc1cc(/C=C2\SC(=S)N(NC(=O)c3cccc(O)c3)C2=O)ccc1O 15.8 µM, O=C(NC(=S)Nc1ccc(NC(=O)c2cccs2)cc1)c1cc2ccccc2o1 12.6 µM, Cc1occc1C(=O)NCc1cccc(CNC(=O)c2ccoc2C)c1 22.4 µM, Oc1c(Br)cc(/C=N/Nc2ccc(Cl)nn2)cc1Br 50.1 µM

Activity change, negative = inhibition, inconclusive:
O=C(N/N=C/c1ccc([N+](=O)[O-])o1)c1sc2ccccc2c1Cl -63.5% [inhibitor], Cc1c(OCC(=O)N2CCN(c3ccccc3)CC2)ccc2c3c(c(=O)oc12)CCCC3 -48.8% [inhibitor], O=C(Nc1ccc(N2CCN(C(=O)c3ccccc3)CC2)c(Cl)c1)c1ncn[nH]1 -36% [inhibitor]
